According to patent publication US20220381657A1, “METHOD FOR PREPARING BIOLOGICAL MATERIAL HAVING EXCELLENT LIGHT-TRANSMITTING PROPERTY” (RIKEN, priority 2016, published 2022):

Tests used:
[1] = Refractive index of high-concentration aqueous solution; format: physicochemical; details: Table 3
Source text: The refractive index of an aqueous solution is commonly known to increase in a solute concentration-dependent manner, and the refractive index of a reagent per unit weight of the reagent varies among individual reagents. Accordingly, two properties are required in order to prepare a high refractive index aqueous solution: (1) an extremely high water-solubility and (2) a […] which allows achieving a high refractive index in a low-concentration aqueous solution.

bovine coagulated blood = assay: Decoloring screening: heme eluted from bovine coagulated blood (OD420-OD700); details: decolorization; for 700 nm calibrated 420 nm Average: OD420 calibrated by OD700; for integrated value 500-700 nm Average: integrated absorbance 500-700 nm
Method: A high-throughput screening system for evaluating the decoloring ability of various compounds was constructed. The screening system involved adding an aqueous solution of each compound to bovine coagulated blood and then measuring the absorbance of heme collected in the supernatant.
Specifically, to bovine blood, an equal amount of 8% PFA solution was added, and reacted at 4° C. overnight. The mixed liquid was centrifuged at 1500×g for 5 minutes, and the supernatant containing PFA was discarded. Then, the same amount of PBS as the original volume of blood was added to prepare a coagulated blood sample. To 150 μL of 10 wt % aqueous solution of each compound, 50 μL of the coagulated blood sample was added, and reacted at 37° C. overnight. The reaction solution was centrifuged at 1500×g for 5 minutes, and then 100 μL of the supernatant was added to a plate so as to be subjected to absorbance measurement. A sample which is suspended in water instead of being dissolved in the water has a weak decoloring effect, but none the less has a high absorbance value. […]

| SMILES | RI ([1]; chemical conc. 70 wt %) | 700 nm calibrated 420 nm Average (bovine coagulated blood) | integrated value 500-700 nm Average (bovine coagulated blood) | RI ([1]; chemical conc. 75 wt %) |
| --- | --- | --- | --- | --- |
| Cc1cccc(N)n1 [#0370, 2-Amino-6-methylpyridine] | 1.4922 | 2.66 | 2.57 | – |
| C1CN=C2CCCN2C1 [#0587, 1,5- Diazabicyclo [4.3.0]-5-nonene] | – | 2.41 | 1.38 | 1.4836 |
